Data source: PubChem BioAssay AID652272 (Drosophila RNAi Screening Center, 2013)

Purpose: 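Finding fly genes that regulate Hedgehog signal transduction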 (primary screen)
Cell system: Drosophila clone 8 (Cl8) cells
Reagent: long dsRNA against Drosophila genes
Measured: 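Firefly light from a Hedgehog-responsive ptc promoter reporter and Renilla reference light, both read on a plate reader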
Scale: firefly Hh reporter signal: higher = more ptc reporter light; Renilla reference signal: higher = more Renilla control light
Rule for the call: 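Called a hit if the two-replicate mean z-score lies below -2 or above +3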
Calls: active = hit: reporter lowered or raised; inactive = not a hit
The screen tested about 21,000 reagents; shown is a random part of those that have a named target and a result. Over the whole deposit, 503 (2.4%) are marked active. 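Raw plate light values, not normalised; calls rest on replicate z-scores that were not deposited; hits include reporter decreases as well as increases.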 The record does not give: the amount of reagent, the time to read-out.

With dpp [DRSC00118], how do the results read?
firefly Hh reporter signal, replicate 1: 3.07e5; firefly Hh reporter signal, replicate 2: 73465; Renilla reference signal, replicate 1: 21307; Renilla reference signal, replicate 2: 6147; activity call: active

Which result is listed for dpp [DRSC00121]?
firefly Hh reporter signal, replicate 1: 6.84e5; firefly Hh reporter signal, replicate 2: 2.13e5; Renilla reference signal, replicate 1: 35283; Renilla reference signal, replicate 2: 9578; activity call: inactive

What is on record for dpp [DRSC00813]?
firefly Hh reporter signal, replicate 1: 90617; firefly Hh reporter signal, replicate 2: 80738; Renilla reference signal, replicate 1: 2162; Renilla reference signal, replicate 2: 2080; activity call: inactive

With CG13841 [DRSC14691], what was measured?
firefly Hh reporter signal, replicate 1: 38651; firefly Hh reporter signal, replicate 2: 3.29e5; Renilla reference signal, replicate 1: 1707; Renilla reference signal, replicate 2: 20672; activity call: inactive

With CG32655 [DRSC18925], how do the results read?
firefly Hh reporter signal, replicate 1: 5.22e5; firefly Hh reporter signal, replicate 2: 1.87e5; Renilla reference signal, replicate 1: 30088; Renilla reference signal, replicate 2: 4170; activity call: inactive

Active calls, of those listed so far:
dpp [DRSC00118] | firefly Hh reporter signal, replicate 1: 3.07e5; firefly Hh reporter signal, replicate 2: 73465; Renilla reference signal, replicate 1: 21307; Renilla reference signal, replicate 2: 6147; activity call: active

The list goes on:
With Pgk [DRSC00769], what was measured?
firefly Hh reporter signal, replicate 1: 1.53e5; firefly Hh reporter signal, replicate 2: 98816; Renilla reference signal, replicate 1: 3509; Renilla reference signal, replicate 2: 2363; activity call: inactive

For sdt [DRSC17555], what does the deposit list?
firefly Hh reporter signal, replicate 1: 4.42e5; firefly Hh reporter signal, replicate 2: 1.41e5; Renilla reference signal, replicate 1: 25686; Renilla reference signal, replicate 2: 3613; activity call: inactive

How did the screen score sdt [DRSC17556]?
firefly Hh reporter signal, replicate 1: 5.00e5; firefly Hh reporter signal, replicate 2: 1.35e5; Renilla reference signal, replicate 1: 32661; Renilla reference signal, replicate 2: 3160; activity call: inactive

With sdt [DRSC17860], what does the deposit list?
firefly Hh reporter signal, replicate 1: 97399; firefly Hh reporter signal, replicate 2: 4.28e5; Renilla reference signal, replicate 1: 3812; Renilla reference signal, replicate 2: 13760; activity call: inactive

With sdt [DRSC17861], how do the results read?
firefly Hh reporter signal, replicate 1: 1.02e5; firefly Hh reporter signal, replicate 2: 3.35e5; Renilla reference signal, replicate 1: 3818; Renilla reference signal, replicate 2: 11840; activity call: inactive

How did the screen score sdt [DRSC18022]?
firefly Hh reporter signal, replicate 1: 1.34e5; firefly Hh reporter signal, replicate 2: 4.52e5; Renilla reference signal, replicate 1: 4566; Renilla reference signal, replicate 2: 14741; activity call: inactive

For sdt [DRSC18025], what does the deposit list?
firefly Hh reporter signal, replicate 1: 60829; firefly Hh reporter signal, replicate 2: 91447; Renilla reference signal, replicate 1: 2153; Renilla reference signal, replicate 2: 3868; activity call: inactive

What did the screen give for sdt [DRSC18026]?
firefly Hh reporter signal, replicate 1: 41675; firefly Hh reporter signal, replicate 2: 2.06e5; Renilla reference signal, replicate 1: 1584; Renilla reference signal, replicate 2: 7393; activity call: inactive

For sdt [DRSC18027], how do the results read?
firefly Hh reporter signal, replicate 1: 86312; firefly Hh reporter signal, replicate 2: 1.71e5; Renilla reference signal, replicate 1: 3303; Renilla reference signal, replicate 2: 6762; activity call: inactive

What did the screen give for sdt [DRSC18108]?
firefly Hh reporter signal, replicate 1: 1.24e5; firefly Hh reporter signal, replicate 2: 3.61e5; Renilla reference signal, replicate 1: 4748; Renilla reference signal, replicate 2: 13104; activity call: inactive
